The entries are a selection whose mix differs from that of the whole data set. Results filed as inconclusive are left out. Activity calls are given as the source filed them. Calls follow the shape of the full dose curve; tested in HEK293 cells.
test: qHTS for Inhibitors of binding or entry into cells for Lassa Virus; conditions: Lassa virus pseudotype entry inhibition, cell reporter; also: nearly all actives have a fitted effect of over 50% in size
Potency is read from the fitted curve at half-maximal effect.

| Structure (SMILES) | Potency |
| --- | --- |
| Fc1ccc(-c2ncn(C3CCNCC3)c2-c2ccnc(Oc3cccc(C(F)(F)F)c3)n2)cc1 | active: 12.5 µM |
| Fc1ccc(-c2ncn(C3CCNCC3)c2-c2ccnc(Oc3cccc(F)c3)n2)cc1 | active: 6.28 µM |
| Fc1ccc(-c2ncn(C3CCNCC3)c2-c2ccnc(Oc3ccc(Cl)cc3)n2)cc1 | active: 17.7 µM |
| CC(C)(C)c1ccc(Oc2nccc(-c3c(-c4ccc(F)cc4)ncn3C3CCNCC3)n2)cc1 | active: 6.28 µM |
| Cc1cccc(Oc2nccc(-c3c(-c4ccc(F)cc4)ncn3C3CCNCC3)n2)c1C | active: 14.1 µM |
